Experimental data: PubChem BioAssay (NCATS)
Where “and” joins values, the source holds several entries; their conditions need not be identical. Identical values can stand only once. The list shows a part of the results. The main result of the screen is listed elsewhere. These columns were measured beside it and carry no call. For some of these results: Most of these compounds were active or inconclusive in the main read-out, so they are no random draw. For some of these results: Potencies come from curve fits of mixed quality, noted in brackets.

Amino acid sequences for entries named in this document (tags omitted). A change or cut given only in a name is not applied to a line headed by its entry.
UniProt P50135: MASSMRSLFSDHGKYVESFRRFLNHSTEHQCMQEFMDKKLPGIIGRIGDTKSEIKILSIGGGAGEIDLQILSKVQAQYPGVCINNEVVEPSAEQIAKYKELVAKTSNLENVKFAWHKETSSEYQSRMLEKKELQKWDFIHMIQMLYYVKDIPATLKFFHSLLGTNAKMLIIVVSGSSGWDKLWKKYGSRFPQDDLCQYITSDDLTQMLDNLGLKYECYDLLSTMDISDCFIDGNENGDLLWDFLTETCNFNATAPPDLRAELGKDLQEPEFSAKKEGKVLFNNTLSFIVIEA
UniProt P11086: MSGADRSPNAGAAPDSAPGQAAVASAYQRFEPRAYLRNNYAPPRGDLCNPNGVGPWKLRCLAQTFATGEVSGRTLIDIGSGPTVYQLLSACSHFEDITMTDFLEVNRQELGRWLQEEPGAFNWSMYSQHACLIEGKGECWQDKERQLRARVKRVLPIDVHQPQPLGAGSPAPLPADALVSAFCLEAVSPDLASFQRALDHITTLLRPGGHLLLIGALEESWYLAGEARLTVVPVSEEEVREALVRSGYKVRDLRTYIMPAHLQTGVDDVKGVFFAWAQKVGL

Experiments:
[1] = Validation of Assay for Modulators of Lamin A Splicing (AID 1459); settings: Lamin A splicing dual RFP/GFP fluorescence reporter, ratio
Procedure, shortened: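 Dual-reporter HeLa S3 line (lamin A-EGFP minigene, DsRed2) treated with compounds 48 hrs, 0.5% DMSO final. Endpoint: EGFP/DsRed2 total intensity ratio from laser-scanning microplate cytometry.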

[2] = qHTS Assay for Lipid Storage Modulators (AID 1519); settings: Drosophila S3 cells, BODIPY lipid droplet/cell ratio, laser cytometry, cells loaded with oleic acid
Procedure, shortened: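 Cells seeded at 5,000 per well were treated with compounds over a concentration series and loaded with oleic acid (400 uM, as added). Lipid droplet fluorescence (488 nm excitation, 500-530 nm channel) was read by laser-scanning cytometry and normalized to 20 uM Triacsin C.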

[3] = qHTS Assay for Modulators of Human Peripheral Myelin Protein 22 (PMP22) Expression/Activity (AID 1967); settings: Cell-based PMP22 reporter, dual-color luciferase ratio
Procedure, shortened: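 Engineered MSC80 cells, Pmp22-promoter green and EF-alpha red luciferase reporters; 24h compound treatment at 37 °C. Concentration-response fits on green, red and ratio signals, each overlap-corrected, with %Activity normalized to untreated wells.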

[4] = qHTS Validation Assay to Find Inhibitors of Chronic Active B-Cell Receptor Signaling (AID 485345); settings: ABC-DLBCL cells, chronic BCR signaling reporter
Procedure, shortened: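 TMD8 ABC-DLBCL cells stably carrying doxycycline-inducible IkappaBalpha–green luciferase fusion plus unfused red luciferase; compounds 46 uM to 3 nM, 4 h at 37C with doxycycline. Corrected green/red luminescence ratio normalized to 10 uM MG-132 and basal cell wells; curves fitted.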

[5] = Nrf2 qHTS screen for inhibitors: Validation (AID 493153); settings: A549 ARE-Fluc reporter, 18-24 h; AC50: CellTiter-Fluor fluorescence read, measured here: cytotoxicity CellTiter-Fluor AC50; viability change: measured here: cytotoxicity max response
Procedure, shortened: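 A549 ARE_Fluc, 5% FBS OPTI-MEM; cpd titration, 18-24 h, 37°C/5% CO2. Read 1: CellTiter-Fluor (Ex 405/Em 525), cytotox. Read 2: luciferase lum, Nrf2 activity.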

[6] = qHTS for identification of novel therapeutic agents for treatment of microphthalmiaassociated transcription factor (MiT) renal cell carcinoma (RCC) (AID 1963991); settings: CellTiter-Glo, 48 h; for z-score: stronger effect = lower value
Procedure, shortened: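 Three TFE3-fusion RCC cell lines (UOK109, UOK124, UOK145), 500 cells/well, were exposed to the 1912-compound MIPE 4.0 library for 48 hours at 37 C. Viability was read by CellTiter-Glo luminescence, normalised to DMSO (100%) and empty wells (0%), with 11-concentration curve fits.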

[7] = qHTS assay for small molecule antagonists of glucocorticoid receptor signaling (AID 588533); settings: HeLa MMTV-bla, GRE beta-lactamase ratio, antagonist mode, 18 h; measured here: W530 channel AC50
[8] = qHTS assay for small molecule antagonists of peroxisome proliferator-activated receptor delta signaling (AID 588535); settings: HEK293T PPARd-UAS-bla, beta-lactamase FRET ratio, 18 h; 460 nm channel;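 further: cells co-treated with a PPAR-delta agonist as stimulator during compound exposure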
Procedure, shortened: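 Fluorescence from CCF4-loaded GeneBLAzer PPAR-delta-UAS-bla HEK293T cells (2 hrs RT loading) quantified reporter inhibition after an 18 hr, 37 C compound exposure across a titration.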

[9] = qHTS assay for small molecule antagonists of vitamin D receptor signaling (AID 588541); settings: HEK293T VDR-UAS-bla, beta-lactamase ratio, antagonist mode; measured here: W460 blue channel (cell viability)
[10] = qHTS assay for small molecule agonists of retinoid X receptor alpha signaling (AID 588544); settings: HEK293T RXRa-UAS-bla, beta-lactamase reporter, 18 h; 530 nm emission
[11] = qHTS assay for small molecule antagonists of retinoid X receptor alpha signaling (AID 588546); settings: HEK293T RXRa-UAS-bla, beta-lactamase ratio, antagonist mode; measured here: W530 green channel, cytotoxicity proxy;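 further: cells stimulated with 9-cis-retinoic acid as agonist; on the % scale 0 is the no-effect control and ±100 the full control effect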
Procedure, shortened: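 Beta-lactamase reporter inhibition, read as CCF4 fluorescence ratio (ex 405, em 460/530 nm) after 2 h at RT. HEK293T UAS-bla cells, 2500/well, were stimulated with 9-cis-RA at 500 or 100 nM final alongside test compound for 18 h at 37 C.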

[12] = target: Histamine N-methyltransferase (Homo sapiens) (UniProt P50135); assay: Confirmatory Screen for Target Class Profiling of Small Molecule Inhibitors of Methyltransferases (AID 1745852); settings: MTase-Glo luminescence, SAH detection, recombinant enzyme; measured here: HNMT inhibition potency
[13] = target: Phenylethanolamine N-methyltransferase (Homo sapiens) (UniProt P11086); assay: as above; settings: MTase-Glo luminescence, SAH detection, recombinant enzyme; measured here: PNMT inhibition potency
[14] = A High-Content qHTS Against Drug Library for the Identification of Small Molecules that Inhibit DYT1 Early Onset Primary Dystonia-Associated Cell Pathology (AID 1645839); settings: HEK293 Flp-In EGFP-delE TorsinA, punctate imaging, 48 h; measured here: cell count cytotoxicity
Procedure, shortened: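 Cells were seeded and left for 24 h, then dosed with compound alongside tetracycline induction of mutant EGFP-TorsinA. They were incubated for 48 h, fixed in 4% paraformaldehyde, permeabilized and imaged for mislocalization (%pathology) and cell count.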

[15] = qHTS drug screen for cell cycle checkpoint inhibitors in PARPi-resistant BRCA-mutant ovarian cancer cell lines. (AID 1963452); settings: PEO1/OlaR viability, CellTiter-Glo luminescence, 96 h
Procedure, shortened: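 PEO1, PEO4 and PEO1/OlaR ovarian cancer cells, 600 per well, exposed 96 h at 37C to a dilution series. Viability read by CellTiter-Glo luminescence, normalized to DMSO and empty wells; activity summarized as Z-AUC.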

[16] = measured here: cell count channel max response
[17] = measured here: lipid channel max response
[18] = measured here: red reporter channel AC50, EF-alpha promoter control reporter in MSC80 mouse Schwann cells
[19] = measured here: green reporter channel AC50, mouse Pmp22 promoter in mouse Schwann cells
[20] = measured here: CBG/CBR ratio read-out
[21] = measured here: CBR control luciferase (viability counter)
[22] = TFE3-RCC UOK109 viability, measured here: UOK109 Z-AUC
[23] = TFE3-RCC viability, measured here: UOK124 Z-AUC
[24] = TFE3-RCC viability, measured here: UOK124 cell viability
[25] = TFE3-RCC viability, measured here: UOK145 Z-AUC
[26] = TFE3-RCC viability, measured here: UOK145 cell viability

Structure (SMILES): CC[C@H](C)C(=O)O[C@H]1CCC=C2C=C[C@H](C)[C@H](CC[C@@H]3C[C@H](O)CC(=O)O3)C21 (some centres undefined)
- AC50 ([1]; measured here: GFP channel): 2.51 µM [falling, partial curve, poor fit]
- AC50 ([1]; measured here: RFP channel): 14.1 µM [falling, partial curve, poor fit]
- max response [2, 16]: -45.4%
- max response [2, 17]: -49.4%
- AC50 [3, 18]: 8.49 µM [falling, full curve]

Structure (SMILES): CNC(=O)[C@H]1O[C@@H](n2cnc3c(NCc4ccc(I)cc4)nc(Cl)nc32)[C@H](O)[C@@H]1O
- AC50 ([1]; measured here: GFP channel): 12.6 µM [falling, partial curve]
- AC50 ([1]; measured here: RFP channel): 12.6 µM [falling, partial curve]
- max response [2, 16]: -68.3%
- AC50 ([2]; measured here: lipid (BODIPY) channel AC50): 11.2 µM [falling, partial curve, poor fit]
- max response [2, 17]: -70.3%
- AC50 [3, 19]: 53.6 µM [falling, partial curve]
- AC50 [3, 18]: 37.9 µM [falling, partial curve]
- AC50 [4, 20]: 6.51 µM [falling, partial curve]
- AC50 [4, 21]: 0.461 µM [rising, full curve]
- viability change [5]: 9.59%

Structure (SMILES): COc1ccccc1N1CCN(CCCCNS(=O)(=O)c2cccc3c(N(C)C)cccc23)CC1
- AC50 ([1]; measured here: GFP channel): 35.5 µM [falling, single point]
- AC50 ([1]; measured here: RFP channel): 35.5 µM [falling, single point]
- max response [2, 16]: -23.7%
- AC50 ([2]; measured here: cell number channel AC50): 0.00224 µM [falling, full curve, poor fit]
- max response [2, 17]: -27.9%
- AC50 [3, 19]: 42.6 µM [falling, full curve]
- AC50 [3, 18]: 42.6 µM [falling, partial curve]
- AC50 [4, 20]: 29.1 µM [falling, single point]
- AC50 [5]: 18.4 µM [falling, single point]
- viability change [5]: -39.2%

Structure (SMILES): O=c1cc(-c2ccccc2)[nH]c2nc(Cl)ccc12
- AC50 ([1]; measured here: GFP channel): 5.62 µM [falling, full curve, poor fit]
- AC50 ([1]; measured here: RFP channel): 5.01 µM [falling, full curve, poor fit]
- AC50 [3, 19]: 37.9 µM [falling, partial curve]
- AC50 [3, 18]: 1.9 µM [falling, full curve]

Structure (SMILES): COc1cc2nc(N3CCN(C(=O)c4ccco4)CC3)nc(N)c2cc1OC
- AC50 ([1]; measured here: GFP channel): 35.5 µM [falling, single point]
- AC50 ([1]; measured here: RFP channel): 35.5 µM [falling, single point]
- AC50 [3, 19]: 26.9 µM [falling, full curve]
- AC50 [3, 18]: 23.9 µM [falling, full curve]
- z-score [6, 22]: 0.156
- z-score [6, 23]: -0.264
- AC50 [6, 24]: 18.7 µM [falling, partial curve]
- z-score [6, 25]: 0.0389
- AC50 [6, 26]: 26.4 µM [falling, single point]

Structure (SMILES): CC[C@@H]1Cc2cc(O)ccc2C2=C1c1ccc(O)cc1C[C@H]2CC
- AC50 ([1]; measured here: GFP channel): 12.6 µM [falling, single point]
- AC50 ([1]; measured here: RFP channel): 20 µM [falling, single point]
- AC50 [3, 19]: 53.6 µM [falling, partial curve]
- AC50 [3, 18]: 37.9 µM [falling, full curve]
- AC50 [4, 20]: 18.4 µM [falling, partial curve]
- AC50 [4, 21]: 29.1 µM [falling, single point]
- AC50 [7]: 50.1 µM [falling, single point]
- max response [8]: -49.8%
- AC50 [9]: 39.8 µM [falling, partial curve]
- max response [10]: -59.4%
- max response [11]: -52.8%
- IC50 [12]: 27.3 µM [falling, single point]
- IC50 [13]: 24.3 µM [falling, single point]

Structure (SMILES): CN1CCN(CCCN2c3ccccc3Sc3ccc(Cl)cc32)CC1
- AC50 ([1]; measured here: GFP channel): 10 µM [falling, partial curve]
- AC50 ([1]; measured here: RFP channel): 17.8 µM [rising, single point]
- max response [2, 16]: 41.1%
- max response [2, 17]: 42.2%
- AC50 [3, 19]: 42.6 µM [falling, full curve]
- AC50 [3, 18]: 37.9 µM [falling, full curve]
- AC50 [4, 20]: 29.1 µM [falling, single point]
- AC50 [4, 21]: 29.1 µM [falling, single point]
- AC50 [5]: 32.6 µM [falling, partial curve, poor fit]
- viability change [5]: -22.1%
- AC50 [14]: 3.16 µM [falling, partial curve, poor fit]
- z-score [6, 22]: -0.647
- z-score [6, 23]: 0.115
- AC50 [6, 24]: 26.4 µM [falling, partial curve]
- z-score [6, 25]: 0.0461
- AC50 [6, 26]: 20.9 µM [falling, partial curve]

Structure (SMILES): Cn1cnc([N+](=O)[O-])c1Sc1ncnc2nc[nH]c12
- AC50 ([1]; measured here: GFP channel): 11.2 µM [rising, single point]
- AC50 ([1]; measured here: RFP channel): 11.2 µM [rising, single point]
- AC50 [3, 18]: 47.8 µM [falling, partial curve]
- max response [8]: 39.4% and 115%
- max response [10]: 4.89% and 28.1%
- AC50 ([15]; measured here: PEO1 parental viability): 0.692 µM [falling, full curve]
- AC50 ([15]; measured here: PEO4 viability): 0.616 µM [falling, full curve]
- z-score [6, 22]: -0.606
- z-score [6, 23]: -1.1
- AC50 [6, 24]: 0.833 µM [falling, full curve]
- z-score [6, 25]: -0.904
- AC50 [6, 26]: 5.9 µM [falling, partial curve]
